From PMC3882236, “A Neutralization Epitope in the Hepatitis C Virus E2 Glycoprotein Interacts with Host Entry Factor CD81” (PLoS ONE, 2014)
These are yes or no findings as the source states them, for the method shown. Some entries that bind do so weakly or less than the wild type. Where a sequence is shown, tags or fusion partners need not be part of it.

How the values were obtained:
Assay in all cases: luciferase-based plate binding assay; supernatant (100 uL/well) with E2-16Fc or a mutant form held on protein A-coated 96-well plates, room temperature, 1 h; PBS-T wash; CD81-Luc supernatant (2.5x10^6 units of luciferase activity in 30 uL) added for 1 h, with or without 1H8 (10 or 50 ug/reaction); PBS-T rinse; bound luciferase activity read
[1] = target: E2-16Fc S528N (Hepatitis C virus genotype 1a, H77 strain) (UniProt P27958)
[2] = target: E2-16Fc (HCV E2 protein residues 384-661 fused to human IgG1 Fc) (Hepatitis C virus genotype 1a, H77 strain) (UniProt P27958)
[3] = target: E2-16Fc A524V (Hepatitis C virus genotype 1a, H77 strain) (UniProt P27958)
[4] = target: E2-16Fc S528A (Hepatitis C virus genotype 1a, H77 strain) (UniProt P27958)
[5] = target: E2-16Fc S528T (Hepatitis C virus genotype 1a, H77 strain) (UniProt P27958)
[6] = target: E2-16Fc A524G (Hepatitis C virus genotype 1a, H77 strain) (UniProt P27958)
[7] = target: E2-16Fc P525A (Hepatitis C virus genotype 1a, H77 strain) (UniProt P27958)

Measured: binding

B1: CD81-Luc (large extracellular domain of human CD81, residues 113-201, fused with gaussia luciferase) (domain or fragment, UniProt P60033 113-201, looked up)
chain: FVNKDQIAKDVKQFYDQALQQAVVDDDANNAKAVVKTFHETLDCCGSSTLTALTTSVLKNNLCPSGSNIISNLFKEDCHQKIDDLFSGK
notes: human CD81, large extracellular domain, residues 113-201; source: Huh7, transiently transfected, secreted into the cell culture medium (supernatant)
binds: [1] | [2] | [3] | [4] | [5] | [6] | [7]
